The source of these data is paper PMC5732323.

Sequences of proteins named here, by UniProt entry; tags and fusion partners are left off. A change or cut given only in a name is not applied to a line headed by its entry.
UniProt Q8BUN5: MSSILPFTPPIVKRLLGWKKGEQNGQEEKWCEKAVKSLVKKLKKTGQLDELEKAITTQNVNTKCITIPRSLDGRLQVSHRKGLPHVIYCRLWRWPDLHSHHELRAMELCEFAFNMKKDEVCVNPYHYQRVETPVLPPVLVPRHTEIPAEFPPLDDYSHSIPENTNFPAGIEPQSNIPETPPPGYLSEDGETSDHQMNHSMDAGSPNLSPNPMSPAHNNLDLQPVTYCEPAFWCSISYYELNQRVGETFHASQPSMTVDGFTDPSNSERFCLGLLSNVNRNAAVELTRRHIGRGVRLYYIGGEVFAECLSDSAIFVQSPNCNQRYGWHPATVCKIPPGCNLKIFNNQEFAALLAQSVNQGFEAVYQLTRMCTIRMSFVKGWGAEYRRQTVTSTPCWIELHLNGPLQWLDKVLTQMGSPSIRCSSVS
UniProt Q3TKT4: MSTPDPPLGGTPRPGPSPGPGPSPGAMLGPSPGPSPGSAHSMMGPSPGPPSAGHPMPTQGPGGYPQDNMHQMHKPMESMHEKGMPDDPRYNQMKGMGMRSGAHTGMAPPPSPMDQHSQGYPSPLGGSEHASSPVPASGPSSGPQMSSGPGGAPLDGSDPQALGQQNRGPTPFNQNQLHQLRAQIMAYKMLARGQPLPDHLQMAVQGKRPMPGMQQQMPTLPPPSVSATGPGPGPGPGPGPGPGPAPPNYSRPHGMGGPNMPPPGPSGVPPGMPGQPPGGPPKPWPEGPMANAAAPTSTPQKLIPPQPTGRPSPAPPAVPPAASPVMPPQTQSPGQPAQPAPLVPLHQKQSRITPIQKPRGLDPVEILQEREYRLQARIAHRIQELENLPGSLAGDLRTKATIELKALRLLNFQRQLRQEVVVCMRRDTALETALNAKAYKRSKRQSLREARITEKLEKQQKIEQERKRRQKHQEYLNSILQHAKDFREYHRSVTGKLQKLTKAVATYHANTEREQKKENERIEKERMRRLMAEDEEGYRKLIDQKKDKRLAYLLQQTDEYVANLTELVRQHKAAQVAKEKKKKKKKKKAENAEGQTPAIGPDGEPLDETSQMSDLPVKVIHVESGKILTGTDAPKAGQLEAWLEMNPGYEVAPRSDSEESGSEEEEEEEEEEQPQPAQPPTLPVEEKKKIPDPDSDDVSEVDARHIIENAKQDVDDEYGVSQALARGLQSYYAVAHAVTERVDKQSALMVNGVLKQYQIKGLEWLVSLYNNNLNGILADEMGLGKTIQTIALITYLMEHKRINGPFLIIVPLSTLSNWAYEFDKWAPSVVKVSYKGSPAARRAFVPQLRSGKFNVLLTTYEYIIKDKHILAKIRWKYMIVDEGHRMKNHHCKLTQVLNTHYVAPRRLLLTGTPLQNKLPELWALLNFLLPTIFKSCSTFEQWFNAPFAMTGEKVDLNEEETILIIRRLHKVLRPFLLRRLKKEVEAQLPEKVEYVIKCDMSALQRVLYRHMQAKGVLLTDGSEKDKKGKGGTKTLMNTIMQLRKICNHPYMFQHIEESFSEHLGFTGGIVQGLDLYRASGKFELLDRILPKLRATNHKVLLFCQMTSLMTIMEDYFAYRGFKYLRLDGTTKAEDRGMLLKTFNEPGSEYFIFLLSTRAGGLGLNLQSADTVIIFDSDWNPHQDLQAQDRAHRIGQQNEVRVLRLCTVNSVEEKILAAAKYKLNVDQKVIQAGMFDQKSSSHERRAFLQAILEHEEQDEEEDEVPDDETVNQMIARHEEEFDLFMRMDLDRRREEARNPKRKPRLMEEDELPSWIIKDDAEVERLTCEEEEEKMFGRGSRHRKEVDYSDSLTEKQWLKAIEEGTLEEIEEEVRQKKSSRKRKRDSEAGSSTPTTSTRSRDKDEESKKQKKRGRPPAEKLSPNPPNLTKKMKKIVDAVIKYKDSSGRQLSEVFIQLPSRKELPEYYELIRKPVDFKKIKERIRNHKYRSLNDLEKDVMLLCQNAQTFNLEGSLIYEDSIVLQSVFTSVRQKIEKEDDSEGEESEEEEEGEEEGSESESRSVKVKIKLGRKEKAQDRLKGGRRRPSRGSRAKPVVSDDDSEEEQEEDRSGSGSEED
UniProt Q924H2: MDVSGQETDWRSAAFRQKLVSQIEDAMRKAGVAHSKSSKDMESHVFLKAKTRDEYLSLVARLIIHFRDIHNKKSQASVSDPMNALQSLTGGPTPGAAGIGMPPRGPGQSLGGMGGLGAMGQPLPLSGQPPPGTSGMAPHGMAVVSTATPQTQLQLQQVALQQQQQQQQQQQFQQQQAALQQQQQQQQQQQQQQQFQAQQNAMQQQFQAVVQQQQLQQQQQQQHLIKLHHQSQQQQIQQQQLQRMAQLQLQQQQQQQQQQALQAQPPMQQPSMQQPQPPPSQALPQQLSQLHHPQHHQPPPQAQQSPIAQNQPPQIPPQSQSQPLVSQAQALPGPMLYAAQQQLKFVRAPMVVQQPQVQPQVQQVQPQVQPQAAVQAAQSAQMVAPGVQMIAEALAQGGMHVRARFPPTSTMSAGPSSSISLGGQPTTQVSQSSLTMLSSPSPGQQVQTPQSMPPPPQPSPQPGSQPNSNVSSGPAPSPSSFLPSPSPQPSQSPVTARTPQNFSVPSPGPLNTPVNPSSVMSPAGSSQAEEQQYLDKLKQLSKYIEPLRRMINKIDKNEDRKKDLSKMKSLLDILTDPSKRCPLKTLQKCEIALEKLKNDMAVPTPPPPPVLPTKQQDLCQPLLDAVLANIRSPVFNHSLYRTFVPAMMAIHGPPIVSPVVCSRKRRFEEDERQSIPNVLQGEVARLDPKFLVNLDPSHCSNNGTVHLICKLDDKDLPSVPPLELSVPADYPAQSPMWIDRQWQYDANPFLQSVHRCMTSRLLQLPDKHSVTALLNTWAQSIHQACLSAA
UniProt Q99LT0: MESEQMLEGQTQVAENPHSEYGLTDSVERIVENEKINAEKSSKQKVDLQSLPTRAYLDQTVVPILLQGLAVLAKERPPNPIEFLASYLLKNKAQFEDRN
UniProt P48432: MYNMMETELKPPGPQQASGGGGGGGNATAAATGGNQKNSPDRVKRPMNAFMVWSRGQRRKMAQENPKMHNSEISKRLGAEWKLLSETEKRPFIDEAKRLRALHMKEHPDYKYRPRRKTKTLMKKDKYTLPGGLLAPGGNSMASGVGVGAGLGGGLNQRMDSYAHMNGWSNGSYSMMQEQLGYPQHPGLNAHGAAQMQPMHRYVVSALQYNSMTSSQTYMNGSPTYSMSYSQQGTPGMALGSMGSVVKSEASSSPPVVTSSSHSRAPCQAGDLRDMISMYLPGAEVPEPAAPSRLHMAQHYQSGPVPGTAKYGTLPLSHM

Results are given in words; binding and its absence hold for the method and conditions named. Binding seen in cells or lysates may run through a third protein. Binding calls can cover weak binding; strength is not graded here.

For the assay, the target named is constitutively active SMAD3 (SMAD3CA) (mouse) (UniProt Q8BUN5). The assay is described as follows: co-IP; anti-SMAD3 on Protein G Dynabeads, 200 ug pre-cleared nuclear extract, IP buffer (20 mM HEPES, 1.5 mM MgCl2, 0.2 mM EDTA, 20% glycerol, 100 mM NaCl), 3 h at 4°C; MEFs at day 4 of MKOS reprogramming with Smad3CA expression; blots for the partners.
Take “BRG1 (part of the SWI/SNF complex) (from UniProt Q3TKT4 1-1613)”: the binding entry is “binds”.

“MED15 (part of the Mediator complex) (from UniProt Q924H2 1-789)”: the binding result was “no binding”. For “DPY30 (part of the MLL complex) (from UniProt Q99LT0 1-99)” the value was “binds”. As to SOX2 (from UniProt P48432 1-319), the binding result is “binds”.
